Numbering of substitutions follows the chain as printed. These are yes or no findings as the source states them, for the method shown. Binding seen in cells or lysates may run through a third protein. Some results given as binding are weak or reduced against the parent protein; the word gives no strength.
Assays:
[1] = target: T1, bEF^−GCAP2, bovine GCAP2(E80Q/E116Q/D158N), transgene product in mouse rods (bovine) (UniProt P51177); assay: co-IP; ^32Pi-labelled retinas kept in the dark or exposed to light for 5 min, solubilized in 1% Triton X100 with 4 mM EGTA, 2 mM EDTA, 2 mM NaF; GCAP2 precipitated with anti-GCAP2 mAb2235 on magnetic beads; blot for 14-3-3
T1 sequence (chain, phosphorylated to high levels in vivo (Ser201)): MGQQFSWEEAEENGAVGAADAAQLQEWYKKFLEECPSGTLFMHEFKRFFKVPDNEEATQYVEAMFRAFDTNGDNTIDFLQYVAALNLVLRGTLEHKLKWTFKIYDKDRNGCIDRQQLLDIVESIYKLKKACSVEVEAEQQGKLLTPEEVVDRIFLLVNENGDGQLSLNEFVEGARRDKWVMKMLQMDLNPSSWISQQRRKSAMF

The chains behind the UniProt entries cited, without tags or fusion partners.
UniProt P62259: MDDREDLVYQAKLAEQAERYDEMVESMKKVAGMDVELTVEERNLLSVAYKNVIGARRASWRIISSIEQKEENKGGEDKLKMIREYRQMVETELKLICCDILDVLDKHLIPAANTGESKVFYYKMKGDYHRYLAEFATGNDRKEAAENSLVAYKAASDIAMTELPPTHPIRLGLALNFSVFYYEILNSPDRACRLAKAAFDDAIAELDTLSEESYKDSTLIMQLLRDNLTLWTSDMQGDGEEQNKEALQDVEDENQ
UniProt P62261: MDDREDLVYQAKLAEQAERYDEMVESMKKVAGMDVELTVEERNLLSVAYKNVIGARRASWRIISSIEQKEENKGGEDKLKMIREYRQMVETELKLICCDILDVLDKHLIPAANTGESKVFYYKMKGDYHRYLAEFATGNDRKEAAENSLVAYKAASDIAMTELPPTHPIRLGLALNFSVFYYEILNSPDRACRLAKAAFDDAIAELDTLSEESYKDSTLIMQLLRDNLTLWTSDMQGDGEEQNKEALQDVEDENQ

[2] = target: T2, recombinant phosphorylated bGCAP2 (bovine) (UniProt P51177); assay: pull-down; phosphorylated or mock-treated recombinant GCAP2 cross-linked to magnetic beads; solubilized bovine retina (1/8 retina) in 10 mM HEPES pH 7.4, 135 mM NaCl, 1% Triton X-100, 4 mM EGTA, 2 mM EDTA; 1 h at room temperature; blot for 14-3-3pan and 14-3-3ε; only the target purified
T2 sequence (chain, phosphorylated in vitro by PKG; Ser201 named as the site): T1 sequence (chain, phosphorylated to high levels in vivo (Ser201)) with Q80E, Q116E, N158D

[3] = target: T3, recombinant phosphorylated bEF^−GCAP2 (bovine) (UniProt P51177); assay: as above
T3 sequence (chain, phosphorylated in vitro by PKG; Ser201 named as the site): T1 sequence (chain, phosphorylated to high levels in vivo (Ser201))

[4] = target: T4, recombinant bEF^−GCAP2, mock-treated (unphosphorylated) (bovine) (UniProt P51177); assay: as above
T4 sequence: T1 sequence (chain, phosphorylated to high levels in vivo (Ser201))

binding [1] | binding [2] | binding [3] | binding [4] | Substance
binds | – | – | – | 14-3-3 protein ε (mouse) (from UniProt P62259 1-255)
– | binds | binds | binds | 14-3-3ε (bovine retina) (from UniProt P62261 1-255)
